Source: PubChem BioAssay AID493014 (National Center for Advancing Translational Sciences (NCATS), 2011)
Among all 340,000 compounds or so, about 170 (0.05%) were called active. Inconclusive results, whose numbers are uncertain, are shown with a selection of clear calls. The call rests on the fitted dose curve; in most records, active means well fitted inhibition curve with a large enough effect in the signal ratio, with a control signal flat (not every such curve was filed as active); inconclusive means small, poorly fitted or top-dose-only effect, or effect the other way, or a change in a side signal; inactive means flat fitted curve, though single readings scatter; the % refers to the signal ratio. Potencies of inconclusive entries are doubtful fits and often do not repeat.

Assay: qHTS Assay to Find Inhibitors of Chronic Active B-Cell Receptor Signaling;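 on activity change, negative = inhibition: plate controls were basal doxycycline-induced cells for no effect and cells given 10 µM MG132 for full effect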
Details: ABC-DLBCL IkBa-CBG/CBR reporter, luminescence ratio (green luciferase fused to IkBa over red control in TMD8 lymphoma cells), 4 h; activity change, negative = inhibition: at 46.1 µM (top of the series)
Summary of the method: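 Concentration-response series (up to 46 uM) were applied to TMD8 dual-reporter cells for 4 h at 37C with doxycycline. Green/red ratio, after filter-overlap correction, defined %Activity; red signal alone was normalised to basal cells and zero luminescence.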
Potency means the concentration at half of the fitted maximal effect.

Row | Compound | activity change, negative = inhibition | Potency
1 | O=C(NCCc1ccccc1)C(=O)NCC1OCCN1S(=O)(=O)c1ccccc1 (stereo unspecified) | inconclusive: 0.136% | –
2 | Cc1ccc(OCC(=O)c2ccc3c(c2)CCCC3)cc1C | inactive | –
3 | COc1cc(CNCc2ccccn2)ccc1OCc1c(Cl)cccc1Cl | inconclusive: -19.5% | –
4 | CCCCCCOc1ccc(OC(=O)c2cccnc2)cc1 | inconclusive: 12.7% | –
5 | O=C(N=C1c2ccccc2CN1c1ccccc1)c1cccc([N+](=O)[O-])c1 | inconclusive: 11.1% | –
6 | FC(F)(F)c1ccc(-c2csc(-c3ccno3)n2)cc1 | inconclusive: -1.57% | –
7 | Cc1ccc(NC(=S)N2CCC(N(C)CC3CCCO3)CC2)c(C)c1 (stereo unspecified) | – | inconclusive: 6.51 µM [rising, single point]
8 | COc1ccc2[nH]c(=O)c(CN(C(=O)c3cccnc3)c3ccccc3)cc2c1 | inconclusive: 13.3% | –
9 | COC(=O)c1nnn(CC(=O)Nc2cccc(Cl)c2C)c1C(=O)OC | inconclusive: -4.82% | –
10 | CCOC(=O)c1c(-c2ccccc2)[nH]c2ccc(O)cc12 | inconclusive: 2.88% | –
11 | CCOC(=O)c1ccc(NC(=S)N(CCN(C)C)Cc2cccs2)cc1 | inactive | –
12 | O=C1NC(c2ccc(-c3ccccc3[N+](=O)[O-])o2)C(C(=O)c2ccc(F)cc2)C(O)(C(F)(F)F)N1 (stereo unspecified) | inconclusive: -12.7% | –
13 | COc1cc(OC)cc(-c2c(-c3cccs3)c3cc(-c4ccc(N(C)C)nc4)ccc3n2C)c1 | inactive | –
14 | CC(=O)Nc1ccc(/C=C/c2nc3ccccc3o2)cc1 | inactive | –
15 | O=C(CCl)Nc1ccc(S(=O)(=O)Nc2nccs2)cc1 | – | inconclusive: 25.1 µM [falling, single point]
16 | Brc1ccc(-c2nc(-c3ccccc3)no2)o1 | inconclusive: -12% | –
17 | Cc1ccc(-c2cc(C(=O)N3CC(C)CC(C)C3)c3ccccc3n2)o1 (stereo unspecified) | inactive | –
18 | Oc1ccc(Cl)cc1CNCc1ccc(Cl)nc1 | inconclusive: 6.56% | –
19 | CCCOc1ccc(C(=O)NC(=S)NNC(=O)c2c(-c3ccccc3)noc2C)cc1 | inactive | –
20 | CC(NS(=O)(=O)c1ccc(OCC(=O)Nc2cccc([N+](=O)[O-])c2)cc1)c1ccccc1 (stereo unspecified) | inconclusive: -0.217% | –
21 | O=C(NCc1ccco1)C1CCCN(c2ncnc3c2nc2n3CCCCC2)C1 (stereo unspecified) | inactive | –

Row | Compound | activity change, negative = inhibition | Potency
22 | Cc1ccc(SCC(=O)Nc2cc(C)on2)cc1 | inconclusive: 13.4% | –
23 | CCOC(=O)c1ccc(NC(=O)C2CCCN(S(=O)(=O)c3cnc[nH]3)C2)cc1 (stereo unspecified) | inactive | –
24 | Cc1cc(=O)c2cc(C(=O)c3ccccc3)ccc2[nH]1 | inconclusive: -20.5% | –
25 | O=C(Nc1cc(C(F)(F)F)ccc1Cl)C(Sc1nnc(-c2cccs2)o1)c1ccccc1 (stereo unspecified) | inconclusive: 3.79% | –
26 | O=C(Nc1ccc(Nc2ccncc2)cc1)c1ccc([N+](=O)[O-])cc1 | inconclusive: 8.88% | –
27 | c1csc(-c2nnc(COc3ccc4c(c3)OCO4)o2)c1 | – | inconclusive: 22.4 µM [falling, single point]
28 | CC(C)=N/N=C(/c1ccc([N+](=O)[O-])cc1)C12CN3CN(CN(C3)C1)C2 | inconclusive: -19.1% | –
29 | CCOC(=O)N1CCC(NS(=O)(=O)c2cc(C(=O)OC)n(C)c2)CC1 | inactive | –
30 | O=C(COc1ccccc1[N+](=O)[O-])NCCCN1CCCC1=O | inactive | –
31 | COc1ccc2sc(C)[n+](C)c2c1 | – | inconclusive: 20 µM [falling, partial curve, poor fit]
32 | CN(C(=O)c1ccc(OC2CCN(CCc3ccccc3)CC2)cc1)C1CCOCC1 | inactive | –
33 | CCN(CC)CCCN(C(=O)Cn1nnc(-c2ccc(OC)c(OC)c2)n1)C(C(=O)NC(C)(C)C)c1ccc(F)cc1 (stereo unspecified) | inconclusive: -19.8% | –
34 | CN(CC(=O)NCc1ccc(Cl)cc1)S(=O)(=O)c1cccc2cccnc12 | inconclusive: -6.3% | –
35 | Cc1nnc(NC(=O)C2CCCN2S(=O)(=O)c2ccc(Cl)cc2)s1 (stereo unspecified) | inconclusive: 0.358% | –
36 | COc1cc(/C=C2\SC(=S)N(NS(=O)(=O)c3ccc(C)cc3)C2=O)cc(OC)c1OC | – | inconclusive: 35.5 µM [falling, single point]
37 | C/C(=N/NC(=O)c1cc(-c2ccc(Br)s2)[nH]n1)c1ccco1 | – | inconclusive: 35.5 µM [falling, single point]
38 | COc1ccc2oc(C(F)(F)C(F)F)cc(=O)c2c1 | inconclusive: 8.17% | –
39 | Cc1ccccc1NC(=S)NC(NC(=O)COc1ccccc1)C(Cl)(Cl)Cl (stereo unspecified) | inactive | –
40 | CCn1c(CCNC(=O)c2cccs2)nnc1SCC(=O)Nc1nc(-c2ccccc2)cs1 | inconclusive: 22% | –
41 | Cc1nnc(NC(=O)c2nc(S(=O)(=O)Cc3ccccc3C)ncc2Cl)s1 | inconclusive: 27.6% | –
42 | COc1ccc(N=N/C(=C\O)C(=O)c2ccco2)cc1 | – | inconclusive: 35.5 µM [falling, single point]

Exported as labelled records: 3 of the compounds above.
O=C1NC(c2ccc(-c3ccccc3[N+](=O)[O-])o2)C(C(=O)c2ccc(F)cc2)C(O)(C(F)(F)F)N1 (stereo unspecified)
  activity change, negative = inhibition: inconclusive: -12.7%
COc1cc(OC)cc(-c2c(-c3cccs3)c3cc(-c4ccc(N(C)C)nc4)ccc3n2C)c1
  activity change, negative = inhibition: inactive
CC(=O)Nc1ccc(/C=C/c2nc3ccccc3o2)cc1
  activity change, negative = inhibition: inactive

More results:

Row | Compound | activity change, negative = inhibition | Potency
43 | O=C(Nc1ccccc1C(=O)N/N=C/c1ccco1)c1ccc(Cl)cc1 | – | inconclusive: 6.51 µM [falling, partial curve]
44 | O=C1CC(Cc2ccc(Cl)cc2)C(=O)N1c1ccccn1 (stereo unspecified) | inconclusive: 8.72% | –
45 | COc1ccc(N2CCN(C(=O)C(CCSC)N=C3NS(=O)(=O)c4ccccc43)CC2)cc1 (stereo unspecified) | – | inconclusive: 18.4 µM [falling, single point]
46 | COc1ccc(S(=O)(=O)Nc2cccc3c2O[C@H](CN(C)C(=O)Nc2ccccc2)[C@@H](C)CN([C@H](C)CO)C3=O)cc1 | inactive | –
47 | CCCCCOCC1CC(C/C(C)=N/Nc2nc(-c3ccccc3)cs2)C(=O)O1 (stereo unspecified) | – | inconclusive: 6.31 µM [falling, partial curve]
48 | c1cncc(CNc2ncnc3ccc(-c4ccc5c(c4)OCO5)cc23)c1 | – | inconclusive: 23.1 µM [falling, single point]
49 | COc1ccc2cc(CCC(C)=O)ccc2c1 | inconclusive: -13.8% | –
50 | CCCCN(CC)C(=O)c1ccc(Cl)c(Cl)c1 | inconclusive: 20.1% | –
51 | COc1ccc(-c2noc(C3CCCN(C(=O)CCc4ccccc4)C3)n2)cc1 (stereo unspecified) | inconclusive: -3.66% | –
52 | Cc1ccc(CC(=O)Nc2nc3c(s2)CCCC3)cc1 | – | inconclusive: 0.231 µM [rising, full curve, poor fit]
53 | O=C(O)c1ccc(COc2ccc3ccccc3c2)o1 | inconclusive: 195% | –
54 | CC(C)(C)OC(=O)NCc1ccc(CNC(=O)c2nc[nH]c2C(=O)N2CCc3ccccc3C2)cc1 | inactive | –
55 | O=C(CN1CCN(c2ccc(O)cc2)CC1)Nc1cc(S(=O)(=O)N2CCCCC2)ccc1Cl | inactive | –
56 | O=C(COC(=O)Cc1cccc(C(F)(F)F)c1)NCC1CCCO1 (stereo unspecified) | inconclusive: 2.27% | –
57 | CCN(CC)CCCNC(=O)c1ccc(OCC(=O)Nc2ccccc2C(F)(F)F)c(OC)c1 | inactive | –
58 | COc1ccc(OC)c(NC(=O)CCN2CCN(c3ccccc3OC)CC2)c1 | inconclusive: 1.28% | –
59 | CCOC(=O)c1ccc(NC(=O)NCCc2ccccc2OC)cc1 | – | inconclusive: 14.1 µM [falling, partial curve]
60 | Cc1cc(C)n(CC(=O)NC2CCCCC2C)c(=O)c1C#N (stereo unspecified) | inactive | –
61 | Cn1c(=S)[nH]c2c(c1=O)C(C)(C)Cc1ccccc1-2 | – | inconclusive: 28.2 µM [cytotoxic, partial curve]
62 | CC(=O)N(CCC(Cc1ccccc1)c1ccc2c(c1)OCO2)Cc1ccc(Cl)cc1 (stereo unspecified) | inconclusive: 2.67% | –
63 | CCSC1=N/C(=C\c2ccc3c(c2)OCO3)C(=O)S1 | inconclusive: 20% | –

4 entries from above, as tab-separated lines:
Row	Compound	activity change, negative = inhibition	Potency
51	COc1ccc(-c2noc(C3CCCN(C(=O)CCc4ccccc4)C3)n2)cc1 (stereo unspecified)	inconclusive: -3.66%	–
52	Cc1ccc(CC(=O)Nc2nc3c(s2)CCCC3)cc1	–	inconclusive: 0.231 µM [rising, full curve, poor fit]
53	O=C(O)c1ccc(COc2ccc3ccccc3c2)o1	inconclusive: 195%	–
54	CC(C)(C)OC(=O)NCc1ccc(CNC(=O)c2nc[nH]c2C(=O)N2CCc3ccccc3C2)cc1	inactive	–

Further results follow.

Row | Compound | activity change, negative = inhibition | Potency
64 | COc1ccc(-c2nnc(-c3cc4ccccc4oc3=O)o2)cc1 | inconclusive: -8.58% | –
65 | O=C(CC1SC(N2CCCC2)=NC1=O)Nc1ccc(C(=O)Nc2ncccc2O)cc1 (stereo unspecified) | inconclusive: 0.49% | –
66 | Cc1oc2cc3oc(=O)c(CCC(=O)NCCN4CCOCC4)c(C)c3cc2c1C | – | inconclusive: 35.5 µM [falling, single point]
67 | Cc1ccc(N/C=C/C(=O)c2ccccc2)cc1Br | inconclusive: 407% | –
68 | O=C(/C=C/Nc1ccc(F)cc1F)c1cccs1 | – | inconclusive: 29.1 µM [rising, single point]
69 | Cc1cc(S(=O)(=O)NCc2ccncc2)c(C)cc1Br | inactive | –
70 | Cc1onc(-c2ccccc2)c1C(=O)NC(=S)NNC(=O)c1ccc(O)cc1O | inactive | –
71 | COc1ccc(C(=O)Nc2ccc3[nH]c(-c4cccc(OC)c4)cc(=O)c3c2)cc1 | inconclusive: -3.7% | –
72 | CC1(C)CC(=O)C2=C(C1)OC(N)=C(C#N)C2c1ccccc1 (stereo unspecified) | inconclusive: 0.412% | –
73 | COc1cc(/C=N/Nc2ccccn2)ccc1O | – | inconclusive: 15.8 µM [falling, single point]
74 | Cc1ccc2oc(=O)c(/C=C(\O)c3sc(C)nc3C)nc2c1 | – | inconclusive: 18.4 µM [falling, single point]
75 | O=C(NC(Cc1c[nH]c2ccccc12)C(=O)N/N=C/c1ccc(Br)cc1)c1cccs1 (stereo unspecified) | – | inconclusive: 12.6 µM [falling, partial curve]
76 | CCOC(=O)c1sc(NC(=O)c2c(C)nn(Cc3ccccc3)c2C)cc1C | – | inconclusive: 18.4 µM [falling, partial curve]
77 | O=c1[nH]c2ccccc2nc1C(F)(F)F | inconclusive: 5.99% | –
78 | CC(=O)c1ccc(NC(=O)c2ccc(CSc3ccccc3)o2)cc1 | inconclusive: -16.5% | –
79 | CCOC(=O)C1CCN(Cc2cc(C(C)(C)C)c(O)c(C(C)(C)C)c2)CC1 | inconclusive: -6.08% | –
80 | COc1ccc(S(=O)(=O)Nc2ccc(-c3ccc4nnc(C)n4n3)cc2)c(OC)c1 | inconclusive: -6.36% | –
81 | O=C(Nc1ccc(-c2noc(-c3cccs3)n2)cc1)c1cccnc1 | – | inconclusive: 20.6 µM [falling, partial curve, poor fit]
